{"source": "PubChem BioAssay AID540303", "about": "(National Center for Advancing Translational Sciences (NCATS), 2011)", "note": "Among all 330,000 compounds or so, about 1,000 (0.3%) were called active. The inconclusive results got no clear call from the source; some entries with a clear call stand among them for comparison. Calls come from the whole dose curve; as a rule, active = well fitted inhibition curve with a large enough effect; inconclusive = small, poorly fitted or top-dose-only effect; inactive = no such curve, though single readings can be large or run the other way; tested in mouse RAW 264.7 cells. A potency beside an inconclusive call is a rough fit, not a confirmed value. Potency is the fitted concentration of half-maximal effect."}
{"assay": "qHTS for Inhibitors of Cell Surface uPA Generation; note: nearly all actives have a fitted effect of over 55% in size", "conditions": "cell surface uPA generation assay; series mostly up to 38.3 µM", "in_short": "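ATP-Lite luminescence in RAW 264.7 cells after 24 h of exposure to compound, tested up to 38.3 uM final in 1:5 steps. Raised ATP reflects inhibition of uPA-dependent LF delivery to the cytoplasm.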"}
{"smiles": "C=CC[C@H](CC(=O)N(CCO)Cc1ccccc1)C(=O)N[C@@H](COC(=O)[C@@H](CC=C)CC(=O)OC(C)(C)C)Cc1c[nH]c2ccccc12", "Potency": "inconclusive: 12.6 µM [inhibitor, single point]"}
{"smiles": "CC1CCCCC1NC(=O)NC(=O)CCl", "note": "(configuration not stated)", "Potency": "inactive"}
{"smiles": "O=C(CSc1ccc(-c2ccccc2)nn1)N1CCN(c2ccccc2)CC1", "Potency": "inactive"}
{"smiles": "COc1cc(/C=C2/C(=N)N3C(SC)=NSC3=NC2=O)ccc1OC(=O)c1ccco1", "Potency": "inactive"}
{"smiles": "Cn1c(=O)c2c(nc(NCCc3ccccc3)n2Cc2ccc(F)cc2)n(C)c1=O", "Potency": "inconclusive: 20 µM [inhibitor, single point]"}
{"smiles": "COc1ccc(S(=O)(=O)Nc2cc3c4c(oc3c3ccccc23)CCCC4=O)cc1", "Potency": "inactive"}
{"smiles": "COC(=O)CNC(=O)C(NC(=O)OCc1ccccc1)C(C)C", "note": "(configuration not stated)", "Potency": "inconclusive: 11.2 µM [inhibitor, single point]"}
{"smiles": "CCc1ccc(NC(=O)C2C3CCC(O3)C2C(=O)O)cc1", "note": "(configuration not stated)", "Potency": "inconclusive: 7.94 µM [inhibitor, partial curve, poor fit]"}
{"smiles": "Cc1ccc(CNc2ccc3nnc(-c4ccccc4)n3n2)cc1", "Potency": "inconclusive: 1 µM [inhibitor, full curve, poor fit]"}
{"smiles": "CC(C)c1ccc(Nc2nnc(SCC(=O)Nc3ncc(S(=O)(=O)c4ccc([N+](=O)[O-])cc4)s3)s2)cc1", "Potency": "inconclusive: 0.891 µM [inhibitor, full curve, poor fit]"}
{"smiles": "COc1ccc(CCN(C)CC(O)COc2c(C)ccc(C)c2C)cc1OC", "note": "(configuration not stated)", "Potency": "inactive"}
{"smiles": "CC(C)(C)c1ccc(OCCC(=O)OCC(=O)Nc2cccnc2Cl)cc1", "Potency": "inconclusive: 12.6 µM [inhibitor, single point]"}
{"smiles": "COc1ccc(-c2cc(-c3ccc(Cl)cc3)n[nH]2)c(O)c1", "Potency": "inactive"}
{"smiles": "COc1ccccc1NS(=O)(=O)c1cc(C(=O)N2CCN(C/C=C/c3ccccc3)CC2)ccc1C", "Potency": "active: 3.98 µM"}
{"smiles": "COc1ccc2oc(C(=O)OCC(=O)N3CCN(S(=O)(=O)c4ccccc4)CC3)c(C)c2c1", "Potency": "inconclusive: 12.6 µM [inhibitor, partial curve, poor fit]"}
{"smiles": "COc1ccc(C)c2sc(NC(=O)CCS(=O)(=O)c3ccccc3)nc12", "Potency": "inconclusive: 12.6 µM [inhibitor, partial curve, poor fit]"}
{"smiles": "O=C(CCCNC(=O)/C(=C\\c1ccc(F)cc1)NC(=O)c1ccccc1)OCc1ccccc1", "Potency": "inactive"}
{"smiles": "Cc1ccc(NC(=O)CN2C(=O)N/C(=C/c3ccc(C)s3)C2=O)cc1", "Potency": "inactive"}
{"smiles": "Cn1c(=O)n(C)c2cc(NS(=O)(=O)c3ccccc3)ccc21", "Potency": "inactive"}
{"smiles": "CC(C)C(C)(C#N)NC(=O)CSc1nc2scc(-c3ccc(F)cc3)c2c(=O)n1Cc1ccccc1", "note": "(configuration not stated)", "Potency": "inactive"}
{"smiles": "COCCCNC(=S)NNC(=O)C1CC1c1ccc(C(C)(C)C)cc1", "note": "(configuration not stated)", "Potency": "inactive"}
{"smiles": "Cn1c(/C=C(\\C#N)C(N)=S)ccc1-c1ccc(Br)cc1", "Potency": "inconclusive: 3.98 µM [inhibitor, partial curve, poor fit]"}
{"smiles": "Cc1ccc(-n2nnc(-c3nccs3)n2)cc1", "Potency": "active: 2.24 µM"}
{"smiles": "O=C(O)CCCCCCCCc1cn(Cc2ccc(C(=O)c3ccccc3)cc2)nn1", "Potency": "inconclusive: 2.82 µM [inhibitor, full curve, poor fit]"}
{"smiles": "CC1CCc2nc(NC(=O)C3COc4ccccc4O3)sc2C1", "note": "(configuration not stated)", "Potency": "inconclusive: 12.6 µM [inhibitor, single point]"}
{"smiles": "Cc1nnc(SC(=O)N2c3ccccc3Sc3ccccc32)s1", "Potency": "inconclusive: 3.55 µM [inhibitor, partial curve]"}
{"smiles": "O=C(CNC(=O)c1ccco1)N/N=C/c1ccccc1[N+](=O)[O-]", "Potency": "inactive"}
{"smiles": "CC(=O)c1c(C)[nH]c(C(=O)CN2C(=O)NC(C)(c3ccc(C)cc3)C2=O)c1C", "note": "(configuration not stated)", "Potency": "inconclusive: 5.62 µM [inhibitor, single point]"}
{"smiles": "CCOc1ccc(C(=O)Nc2nnc(SCC(=O)NCC3CCCO3)s2)cc1", "note": "(configuration not stated)", "Potency": "inconclusive: 0.891 µM [inhibitor, full curve, poor fit]"}
{"smiles": "CC(C)(C)OC(=O)N/N=C/c1cccc([N+](=O)[O-])c1", "Potency": "inconclusive: 11.2 µM [inhibitor, partial curve, poor fit]"}
{"smiles": "Cc1cccc(COCC(Cc2ccccc2)N2CCN(C(=O)c3cccc(Cl)c3)CCC2=O)c1", "note": "(configuration not stated)", "Potency": "inconclusive: 12.6 µM [inhibitor, partial curve, poor fit]"}
{"smiles": "C[C@@]12C(=O)Nc3cc(Cl)ccc3C(=O)N1[C@H]1c3cc(Br)ccc3OC[C@@H]1[C@@H]2c1ccccc1", "Potency": "inconclusive: 20 µM [inhibitor, single point]"}
{"smiles": "CCCCCCOc1ccc(C(=O)O)cc1C#N", "Potency": "inactive"}
{"smiles": "COc1ccc(NC(=O)Nc2cnccn2)cc1", "Potency": "inconclusive: 0.0178 µM [inhibitor, full curve, poor fit]"}
{"smiles": "O=C(C1=C(c2ccccc2)C(=O)c2ccccc2C1=O)c1ccccc1", "Potency": "inconclusive: 17.8 µM [inhibitor, partial curve, poor fit]"}
{"smiles": "CN1CCN(C(=S)c2cn(CCOc3ccccc3)c3ccccc23)CC1", "Potency": "inactive"}
{"smiles": "O=C(O)c1cc(-c2ccccc2)nc(-c2ccccc2)c1", "Potency": "inconclusive: 0.891 µM [inhibitor, full curve, poor fit]"}
{"smiles": "CC(=O)Nc1nnc(-c2ccc3c(c2)CCCC3)o1", "Potency": "inconclusive: 12.6 µM [inhibitor, partial curve, poor fit]"}
{"smiles": "Nc1ccc(-c2nc3cc(N)ccc3o2)cc1", "Potency": "inconclusive: 11.2 µM [inhibitor, partial curve, poor fit]"}
{"smiles": "N#C/C(=C/c1ccc(-c2ccc([N+](=O)[O-])cc2)o1)c1nnc(N2CCOCC2)n1-c1ccccc1", "Potency": "inactive"}
{"smiles": "Cc1cccc2cc(CN(C(=O)c3cnccn3)C3CCCCC3)c(Cl)nc12", "Potency": "inconclusive: 11.2 µM [inhibitor, single point]"}
{"smiles": "O=C(Nc1ccc(-c2csc(-c3ccccc3)n2)cc1)c1ccccc1Cl", "Potency": "inconclusive: 3.55 µM [inhibitor, partial curve, poor fit]"}
{"smiles": "CN(C(=O)c1ccncc1)c1nnc(-c2ccccn2)s1", "Potency": "inactive"}
{"smiles": "O=C(COc1ccccc1Cl)Nc1cccc(S(=O)(=O)NC2=NCCCCC2)c1", "Potency": "inactive"}
{"smiles": "COc1ccc(CN(C)C(=O)c2cccc(S(=O)(=O)N3CCCc4ccccc43)c2)c(OC)c1OC", "Potency": "inconclusive: 12.6 µM [inhibitor, partial curve, poor fit]"}
{"smiles": "CCOC(=O)N/N=C/c1c[nH]c2ccccc12", "Potency": "inconclusive: 5.01 µM [inhibitor, partial curve, poor fit]"}
{"smiles": "COc1cc(COc2ccc3c(C)c(CCC(=O)O)c(=O)oc3c2)cc(OC)c1OC", "Potency": "inactive"}
{"smiles": "COc1cc(C2C3=C(CC(C)(C)CC3=O)N(C)C3=C2C(=O)CC(C)(C)C3)cc(Br)c1O", "Potency": "inconclusive: 0.355 µM [inhibitor, full curve, poor fit]"}
{"smiles": "CC1CCCCN1C(=O)c1ccc(C(=O)Nc2ccc(F)cc2)cc1", "note": "(configuration not stated)", "Potency": "inactive"}
{"smiles": "Nc1c(C(=O)NCc2ccco2)c2nc3ccccc3nc2n1CCc1ccccc1F", "Potency": "inactive"}
{"smiles": "COc1ccc2[nH]c3c(c2c1)CCN1C(=O)C(CC(=O)NCC24CC5CC(CC(C5)C2)C4)C[C@H](C(=O)N(C(C)C)C(C)C)[C@@]31C", "note": "(some centres not stated)", "Potency": "inconclusive: 22.4 µM [inhibitor, single point]"}
{"smiles": "COc1cccc(NC(=O)c2cc(Cl)nnc2Cl)c1", "Potency": "inactive"}
{"smiles": "O=C(c1ccco1)N1CCN(C(=O)c2ccccc2Oc2ccccc2)CC1", "Potency": "inconclusive: 12.6 µM [inhibitor, single point]"}
{"smiles": "CCOc1cc(CNCCCN2CCOCC2)cc(Br)c1OCC(=O)Nc1cccc(C(F)(F)F)c1", "Potency": "inconclusive: 11.2 µM [inhibitor, single point]"}
{"smiles": "COc1ccc(C(=O)OC(C)CN2CCOCC2)cc1", "note": "(configuration not stated)", "Potency": "inactive"}
{"smiles": "COc1ccccc1NC(=O)CSc1nc(=O)n(Cc2ccncc2)c2c1CCCC2", "Potency": "inconclusive: 1.41 µM [inhibitor, partial curve, poor fit]"}
{"smiles": "CCN1CCN(C(=O)C2CCN(c3nnc(C)c4c(C)n(-c5ccc(C)cc5)nc34)CC2)CC1", "Potency": "inconclusive: 8.91 µM [inhibitor, partial curve, poor fit]"}
{"smiles": "COc1cc2c(c(OC)c1OC)-c1ccc(OC)c(=O)cc1C(NC(C)=O)CC2", "note": "(configuration not stated)", "Potency": "inconclusive: 0.005 µM [inhibitor, full curve, poor fit]"}
{"smiles": "COc1cccc(NC(=S)N(CCc2c(C)[nH]c3ccccc23)Cc2cccs2)c1", "Potency": "inconclusive: 3.16 µM [inhibitor, single point]"}
{"smiles": "CC1C(O)=C(c2nc3ccccc3[nH]2)C(=N)N1c1ccccc1", "note": "(configuration not stated)", "Potency": "inconclusive: 7.94 µM [inhibitor, single point]"}
{"smiles": "COc1ccc2[nH]c3c4c(ccc3c2c1)C(=O)C=CC4=O", "Potency": "active: 3.16 µM"}
{"smiles": "CN1CCC(N(C)S(=O)(=O)c2ccc(NC(=O)COc3ccc(Cl)cc3)cc2)CC1", "Potency": "inconclusive: 10 µM [inhibitor, partial curve]"}
{"smiles": "COc1ccc(N(Cc2cc3ccc(C)cc3[nH]c2=O)S(=O)(=O)c2ccccc2)cc1", "Potency": "inconclusive: 12.6 µM [inhibitor, single point]"}
{"smiles": "CCC(CO)NCc1ccc(OCC(O)c2ccccc2)c(OC)c1", "note": "(configuration not stated)", "Potency": "inconclusive: 14.1 µM [inhibitor, partial curve, poor fit]"}
{"smiles": "CC1CCC(C(=O)NC(C(=O)N2CCc3ccccc3C2)C(C)C)CC1", "note": "(configuration not stated)", "Potency": "inactive"}
{"smiles": "Cc1ccc(S(=O)(=O)N2CCCCC2)cc1C(=O)NCC1CCCO1", "note": "(configuration not stated)", "Potency": "inconclusive: 2.82 µM [inhibitor, single point]"}
{"smiles": "COc1ccc(CNC(NC(=O)c2ccccc2)(C(F)(F)F)C(F)(F)F)cc1", "Potency": "inactive"}
